These are yes or no findings as the source states them, for the method shown. Some binding calls cover weakened binding; strength is not graded here. Sequences can lack the tags named with a protein.

In this test the target is T1, Fc-fused soluble cadherin-6 (extracellular domain of CDH6 fused to the Fc fragment of human IgG1) (human) (UniProt P55285).
T1 sequence: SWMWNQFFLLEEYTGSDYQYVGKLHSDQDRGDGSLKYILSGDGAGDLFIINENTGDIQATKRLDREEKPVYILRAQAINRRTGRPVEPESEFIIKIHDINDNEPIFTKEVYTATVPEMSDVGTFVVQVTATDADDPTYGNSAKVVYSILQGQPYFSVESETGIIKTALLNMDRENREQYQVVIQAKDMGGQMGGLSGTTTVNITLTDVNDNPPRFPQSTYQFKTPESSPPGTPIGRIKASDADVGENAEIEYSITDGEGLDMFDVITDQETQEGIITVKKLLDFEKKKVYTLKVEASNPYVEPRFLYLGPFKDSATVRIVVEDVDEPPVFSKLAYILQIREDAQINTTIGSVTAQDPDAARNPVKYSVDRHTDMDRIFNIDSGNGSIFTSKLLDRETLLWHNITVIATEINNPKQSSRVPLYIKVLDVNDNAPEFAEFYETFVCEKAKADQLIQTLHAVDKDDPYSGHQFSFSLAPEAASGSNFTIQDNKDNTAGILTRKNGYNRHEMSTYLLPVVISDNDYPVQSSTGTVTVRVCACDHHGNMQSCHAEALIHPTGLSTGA
As to the kind of experiment: ELISA of GST-fused GRS proteins with CDH6 (format not described further), normalized OD value. For orientation: In an ELISA, binding on a coated surface is turned into a signal by an enzyme label.

B1: Full (enzyme, not shown: a dimerising Fc or GST; large carriers; small tags and cut ends)
chain: MDGAGAEEVLAPLRLAVRQQGDLVRKLKEDKAPQVDVDKAVAELKARKRVLEAKELALQPKDDIVDRAKMEDTLKRRFFYDQAFAIYGGVSGLYDFGPVGCALKNNIIQTWRQHFIQEEQILEIDCTMLTPEPVLKTSGHVDKFADFMVKDVKNGECFRADHLLKAHLQKLMSDKKCSVEKKSEMESVLAQLDNYGQQELADLFVNYNVKSPITGNDLSPPVSFNLMFKTFIGPGGNMPGYLRPETAQGIFLNFKRLLEFNQGKLPFAAAQIGNSFRNEISPRSGLIRVREFTMAEIEHFVDPSEKDHPKFQNVADLHLYLYSAKAQVSGQSARKMRLGDAVEQGVINNTVLGYFIGRIYLYLTKVGISPDKLRFRQHMENEMAHYACDCWDAESKTSYGWIEIVGCADRSCYDLSCHARATKVPLVAEKPLKEPKTVNVVQFEPSKGAIGKAYKKDAKLVMEYLAICDECYITEMEMLLNEKGEFTIETEGKTFQLTKDMINVKRFQKTLYVEEVVPNVIEPSFGLGRIMYTVFEHTFHVREGDEQRTFFSFPAVVAPFKCSVLPLSQNQEFMPFVKELSEALTRHGVSHKVDDSSGSIGRRYARTDEIGVAFGVTIDFDTVNKTPHTATLRDRDSMRQIRAEISELPSIVQDLANGNITWADVEARYPLFEGQETGKKETIEE
For the molecule B1, the binding entry is reported as “binds”.

The record behind these values is patent US20140220596A1 (MEDICINAL BIOCONVERGENCE RESEARCH CENTER, published 2014).
